# Library screen at single concentrations

From ChEMBL document CHEMBL3988442, “University of Dundee, Small-Polar-MMV Screening Library” (2021).

Mtb cholesterol medium: 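Whole-cell growth test on Mycobacterium tuberculosis, read after 4 days in a medium based on cholesterol and the lipid DPPC; the read-out is not stated. Tested at 50 µM. Higher reads as more growth inhibition (inferred: compounds with an IC50 in retests scored well above the rest). Size under these conditions: about 69,000 compounds, about 370 of them at 50% or above in at least one test.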
Mtb glucose medium: 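Growth of Mycobacterium tuberculosis over 3 days (7H9 medium with glucose and tyloxapol); the read-out is not stated. Concentration: 50 µM. Higher reads as more growth inhibition (inferred: compounds with an IC50 in retests scored well above the rest). Of about 69,000 compounds tested this way, about 760 (1.1%) reached 50% or more in at least one test.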

Values are the deposited “Percent Effect”, in %.
The controls that fix the scale are not given in the record; negative values are as filed.
Compounds were drawn at random from those tested, without regard to their results.
Two or more numbers in one place are separate tests of the same structure; such repeats can differ widely.

Result for CCN(C)Cc1cccc(CNC(=O)NCCc2ccccn2)c1 was Mtb cholesterol medium: -6.135%; Mtb glucose medium: 2.428%.
Result for CCS(=O)(=O)N1Cc2c(Cn3ccnc3)nn(C(C)C)c2C1 was Mtb cholesterol medium: -37.89%; Mtb glucose medium: -0.7257% and 20.01%.
Result for Cc1ccc(OCC(O)CNC(=O)C2(c3ccc(F)cc3)CC2)cc1 (stereo unspecified) was Mtb cholesterol medium: -7.147%; Mtb glucose medium: 8.546%.
Result for CN(CC1(CO)CCCC1)C(=O)c1cc(COc2ccccc2F)[nH]n1 was Mtb cholesterol medium: -1.795% and -16.03%; Mtb glucose medium: 6.509%.
Result for CN1CCN(CCOc2ccc(NC(=O)c3ccoc3)cc2)CC1 was Mtb cholesterol medium: 7.814%; Mtb glucose medium: -14.05%.
Result for O=C(O)C(F)(F)F.[H][C@@]12CCN(Cc3nccs3)C[C@@]1([H])O[C@@H](C(=O)NCCOC)C2 was Mtb cholesterol medium: -15.97%; Mtb glucose medium: 11.63%.
Result for [H][C@]12CC[C@]([H])(CN(S(=O)(=O)N(C)C)C1)N(Cc1ccc3c(c1)OCCO3)C2 was Mtb cholesterol medium: -2.205% and 14%; Mtb glucose medium: 22.84%.
Result for CN(C)c1cc(C(=O)N2CCCCC2)ccn1 was Mtb cholesterol medium: 4.152%; Mtb glucose medium: 10.26%.
Result for CC(C)NC(=O)N1CCC2(CC1)CN(C(=O)NC(C)C)CCO2 was Mtb cholesterol medium: -18.15%; Mtb glucose medium: -5.912%.
Result for [H][C@@]12COC[C@]1(COc1cccnc1)CN(C(=O)c1cocn1)C2 was Mtb cholesterol medium: -4.634%; Mtb glucose medium: 15.61%.
Result for CN(C)C(=O)C1CN(Cc2ccc(C#N)cc2F)c2ccccc2O1 (stereo unspecified) was Mtb cholesterol medium: 0.8265%; Mtb glucose medium: 7.597% and 2.628%.
Result for CCCC(=O)N1CCCCC1c1nc(N(C)C)ncc1-c1cc(C)no1 (stereo unspecified) was Mtb cholesterol medium: 3.486% and -5.945%; Mtb glucose medium: -8.619%.
Result for CCOC1CCCN(C(=O)c2ccccc2NCc2cccnc2)C1 (stereo unspecified) was Mtb cholesterol medium: -16.8%; Mtb glucose medium: -6.451%.
Result for CC(C)C(=O)N1CCC(NC2CCSCC2)C1 (stereo unspecified) was Mtb cholesterol medium: 20.58%; Mtb glucose medium: 3.754%.
Result for CCOCC(O)CN1CCN(C(=O)c2cc(C)ccc2OC)CC1 (stereo unspecified) was Mtb cholesterol medium: -27.44%; Mtb glucose medium: -11.61%.
Result for O=C(COCc1ccccc1Cl)N1CCN(c2ccc(Br)cn2)CC1 was Mtb cholesterol medium: 0.02561%; Mtb glucose medium: 40.48%.
Result for NC(=O)c1nnn(-c2ccc(Br)cc2)n1 was Mtb cholesterol medium: 0.8008%; Mtb glucose medium: 16.02%.
Result for COc1cccc(-n2cc(CN(C)C(=O)c3cnc(O)cn3)cn2)c1 was Mtb cholesterol medium: 6.561%; Mtb glucose medium: 1.07%.
Result for NC(=O)c1c(SCCN2CCCCC2)sc2c(O)cc(=O)[nH]c12 was Mtb cholesterol medium: 13.31%; Mtb glucose medium: 16.56%.
Result for CCOC(=O)c1sc(NC(=O)CCCC(=O)O)c(C#N)c1C was Mtb cholesterol medium: -11.46%; Mtb glucose medium: -1.856%.
Result for COC(=O)CCCNC(=O)COc1ccccc1C(F)(F)F was Mtb cholesterol medium: -23.4% and 2.415%; Mtb glucose medium: 5.157%.
Result for COCCNC(=O)c1ccoc1CN1c2ccccc2CC1C (stereo unspecified) was Mtb cholesterol medium: 14.21% and -3.675%; Mtb glucose medium: 16.22%.
Result for Cc1cccc(OCCNC(=O)CN2CCCC2c2noc(C)n2)c1 (stereo unspecified) was Mtb cholesterol medium: -5.092%; Mtb glucose medium: -0.4918%.
Result for COCCN1CCN(CCCS(C)(=O)=O)CC1C (stereo unspecified) was Mtb cholesterol medium: -18.68%; Mtb glucose medium: 10.02%.
Result for Cc1cc(N2CCCCC2)nc(N(CCO)CCO)c1C#N was Mtb cholesterol medium: 12.99%; Mtb glucose medium: 13.37% and -1.784%.

The first 2 entries again:

Result for CCN(C)Cc1cccc(CNC(=O)NCCc2ccccn2)c1 was Mtb cholesterol medium: -6.135%; Mtb glucose medium: 2.428%.
Result for CCS(=O)(=O)N1Cc2c(Cn3ccnc3)nn(C(C)C)c2C1 was Mtb cholesterol medium: -37.89%; Mtb glucose medium: -0.7257% and 20.01%.